No constants are given. Whether binding was seen depends on the method and setting. In cells and extracts the contact can be indirect. Some entries that bind do so weakly or less than the wild type. Where a sequence is shown, tags or fusion partners need not be part of it.
Molecular target: GFP-CSB-AD (CSB acidic domain, 337-509 a.a.) (human) (UniProt Q03468)
Experiment: co-IP; anti-GFP immunoprecipitation (protein G-Sepharose) from lysates of co-transfected Flp-in 293 cells; lysis buffer 150 mM NaCl, 1% NP-40, 4 °C overnight

Sequences of proteins named here, by UniProt entry; tags and fusion partners are left off. Residues count along the entry.
UniProt Q03468, residues 337-509: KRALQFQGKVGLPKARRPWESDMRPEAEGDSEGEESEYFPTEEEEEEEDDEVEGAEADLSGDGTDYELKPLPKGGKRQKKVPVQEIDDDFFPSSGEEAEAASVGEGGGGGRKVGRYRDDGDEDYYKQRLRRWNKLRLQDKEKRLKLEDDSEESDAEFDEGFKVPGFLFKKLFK

binding: binds
B1: Myc-RAD52 (protein, UniProt P43351 1-418)
chain: MSGTEEAILGGRDSHPAAGGGSVLCFGQCQYTAEEYQAIQKALRQRLGPEYISSRMAGGGQKVCYIEGHRVINLANEMFGYNGWAHSITQQNVDFVDLNNGKFYVGVCAFVRVQLKDGSYHEDVGYGVSEGLKSKALSLEKARKEAVTDGLKRALRSFGNALGNCILDKDYLRSLNKLPRQLPLEVDLTKAKRQDLEPSVEEARYNSCRPNMALGHPQLQQVTSPSRPSHAVIPADQDCSSRSLSSSAVESEATHQRKLRQKQLQQQFRERMEKQQVRVSTPSAEKSEAAPPAPPVTHSTPVTVSEPLLEKDFLAGVTQELIKTLEDNSEKWAVTPDAGDGVVKPSSRADPAQTSDTLALNNQMVTQNRTPHSVCHQKPQAKSGSWDLQTYSADQRTTGNWESHRKSQDMKKRKYDPS

Reference: article PMC6175878, “ROS-induced R loops trigger a transcription-coupled but BRCA1/2-independent homologous recombination pathway through CSB” (Nature Communications, 2018)
